Measured values published in the supplement of paper PMC10849652.
Some of the results follow.

Amino acid sequences for entries named in this document (tags omitted). A change or cut given only in a name is not applied to a line headed by its entry.
UniProt Q9UBX3: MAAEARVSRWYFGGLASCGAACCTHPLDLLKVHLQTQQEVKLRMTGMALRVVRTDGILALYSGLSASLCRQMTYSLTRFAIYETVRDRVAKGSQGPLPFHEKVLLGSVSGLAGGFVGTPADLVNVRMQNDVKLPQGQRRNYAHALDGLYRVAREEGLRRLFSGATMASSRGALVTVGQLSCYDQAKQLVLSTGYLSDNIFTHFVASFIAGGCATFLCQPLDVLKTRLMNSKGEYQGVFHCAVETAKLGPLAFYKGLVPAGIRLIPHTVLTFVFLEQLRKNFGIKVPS
UniProt Q9Y2D2: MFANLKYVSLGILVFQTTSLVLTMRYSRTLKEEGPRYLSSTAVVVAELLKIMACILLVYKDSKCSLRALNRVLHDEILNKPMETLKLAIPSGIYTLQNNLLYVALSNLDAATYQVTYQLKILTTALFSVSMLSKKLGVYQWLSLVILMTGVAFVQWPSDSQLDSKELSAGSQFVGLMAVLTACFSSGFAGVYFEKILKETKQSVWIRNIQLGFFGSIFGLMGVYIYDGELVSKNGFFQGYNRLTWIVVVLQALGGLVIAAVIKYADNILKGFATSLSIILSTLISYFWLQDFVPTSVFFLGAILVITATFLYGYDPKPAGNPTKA
UniProt O14745: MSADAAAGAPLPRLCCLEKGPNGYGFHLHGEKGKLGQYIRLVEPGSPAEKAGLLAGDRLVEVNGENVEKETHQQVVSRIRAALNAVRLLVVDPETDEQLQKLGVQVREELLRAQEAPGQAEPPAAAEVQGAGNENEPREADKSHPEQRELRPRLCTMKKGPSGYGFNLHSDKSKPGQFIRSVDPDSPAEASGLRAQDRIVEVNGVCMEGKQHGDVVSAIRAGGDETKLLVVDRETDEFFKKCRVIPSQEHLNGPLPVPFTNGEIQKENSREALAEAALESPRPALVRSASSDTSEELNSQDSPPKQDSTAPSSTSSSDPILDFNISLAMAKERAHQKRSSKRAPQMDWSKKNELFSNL
UniProt Q9Y6M7: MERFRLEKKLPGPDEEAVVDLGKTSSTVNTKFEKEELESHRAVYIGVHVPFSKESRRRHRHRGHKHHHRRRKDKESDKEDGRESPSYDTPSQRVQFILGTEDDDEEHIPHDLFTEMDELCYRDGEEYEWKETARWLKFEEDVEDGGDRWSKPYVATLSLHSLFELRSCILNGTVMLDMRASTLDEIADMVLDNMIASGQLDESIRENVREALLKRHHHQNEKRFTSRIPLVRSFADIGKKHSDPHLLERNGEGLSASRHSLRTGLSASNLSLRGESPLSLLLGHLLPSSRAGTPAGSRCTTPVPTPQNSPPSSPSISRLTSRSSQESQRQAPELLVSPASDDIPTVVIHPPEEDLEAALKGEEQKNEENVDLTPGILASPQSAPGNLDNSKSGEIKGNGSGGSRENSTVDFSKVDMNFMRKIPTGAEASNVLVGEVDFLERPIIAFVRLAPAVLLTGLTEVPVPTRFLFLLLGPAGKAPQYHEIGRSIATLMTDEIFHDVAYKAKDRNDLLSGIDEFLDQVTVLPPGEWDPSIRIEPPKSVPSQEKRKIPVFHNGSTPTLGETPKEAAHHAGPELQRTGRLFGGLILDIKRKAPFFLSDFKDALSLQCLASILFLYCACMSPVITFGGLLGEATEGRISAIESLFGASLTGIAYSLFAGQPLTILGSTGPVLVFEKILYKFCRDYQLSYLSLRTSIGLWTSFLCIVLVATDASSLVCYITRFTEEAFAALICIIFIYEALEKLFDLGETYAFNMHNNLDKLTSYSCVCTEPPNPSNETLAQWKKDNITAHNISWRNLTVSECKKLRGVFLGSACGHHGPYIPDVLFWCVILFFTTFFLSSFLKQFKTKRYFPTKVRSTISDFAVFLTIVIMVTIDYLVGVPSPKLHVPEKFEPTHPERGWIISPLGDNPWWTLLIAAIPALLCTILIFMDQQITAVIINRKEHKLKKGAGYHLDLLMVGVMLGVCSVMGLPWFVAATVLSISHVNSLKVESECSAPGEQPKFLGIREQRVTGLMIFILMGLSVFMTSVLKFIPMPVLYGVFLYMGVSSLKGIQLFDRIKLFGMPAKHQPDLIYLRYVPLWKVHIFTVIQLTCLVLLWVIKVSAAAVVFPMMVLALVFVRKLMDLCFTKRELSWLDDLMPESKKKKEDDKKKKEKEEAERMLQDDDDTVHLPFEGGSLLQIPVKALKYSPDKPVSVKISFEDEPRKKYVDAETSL
UniProt Q8TB61: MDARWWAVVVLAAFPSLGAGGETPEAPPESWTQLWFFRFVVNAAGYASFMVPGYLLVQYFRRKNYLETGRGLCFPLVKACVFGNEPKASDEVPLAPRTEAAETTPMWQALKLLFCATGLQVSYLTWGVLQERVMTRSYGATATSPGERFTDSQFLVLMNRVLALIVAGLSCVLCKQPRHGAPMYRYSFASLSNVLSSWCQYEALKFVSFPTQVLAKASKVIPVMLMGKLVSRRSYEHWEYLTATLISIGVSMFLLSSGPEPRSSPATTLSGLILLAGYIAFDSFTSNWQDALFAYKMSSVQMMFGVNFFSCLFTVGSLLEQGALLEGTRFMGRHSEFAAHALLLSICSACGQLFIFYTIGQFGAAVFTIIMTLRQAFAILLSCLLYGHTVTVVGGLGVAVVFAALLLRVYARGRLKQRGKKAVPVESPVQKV
UniProt Q99717: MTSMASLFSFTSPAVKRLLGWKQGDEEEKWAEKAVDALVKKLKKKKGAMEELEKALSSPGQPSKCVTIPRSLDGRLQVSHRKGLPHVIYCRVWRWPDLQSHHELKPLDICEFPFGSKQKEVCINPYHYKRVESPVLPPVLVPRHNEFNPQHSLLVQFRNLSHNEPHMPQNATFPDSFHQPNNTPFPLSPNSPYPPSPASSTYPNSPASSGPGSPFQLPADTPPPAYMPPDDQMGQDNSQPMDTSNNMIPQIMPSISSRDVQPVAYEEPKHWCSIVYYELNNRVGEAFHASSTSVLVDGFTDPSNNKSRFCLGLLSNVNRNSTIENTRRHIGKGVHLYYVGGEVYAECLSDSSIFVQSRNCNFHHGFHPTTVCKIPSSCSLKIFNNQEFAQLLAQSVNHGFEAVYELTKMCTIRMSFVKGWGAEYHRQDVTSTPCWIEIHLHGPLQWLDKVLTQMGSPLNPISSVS
UniProt Q9BQT8: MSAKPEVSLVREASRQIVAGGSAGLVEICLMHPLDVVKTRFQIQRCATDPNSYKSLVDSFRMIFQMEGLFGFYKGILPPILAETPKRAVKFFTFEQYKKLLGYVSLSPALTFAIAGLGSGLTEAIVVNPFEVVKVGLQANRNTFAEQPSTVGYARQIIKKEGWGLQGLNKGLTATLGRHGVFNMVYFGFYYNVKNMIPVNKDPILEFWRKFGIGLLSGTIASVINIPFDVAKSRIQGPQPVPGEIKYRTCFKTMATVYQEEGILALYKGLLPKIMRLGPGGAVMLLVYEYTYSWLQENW
UniProt Q8WU79: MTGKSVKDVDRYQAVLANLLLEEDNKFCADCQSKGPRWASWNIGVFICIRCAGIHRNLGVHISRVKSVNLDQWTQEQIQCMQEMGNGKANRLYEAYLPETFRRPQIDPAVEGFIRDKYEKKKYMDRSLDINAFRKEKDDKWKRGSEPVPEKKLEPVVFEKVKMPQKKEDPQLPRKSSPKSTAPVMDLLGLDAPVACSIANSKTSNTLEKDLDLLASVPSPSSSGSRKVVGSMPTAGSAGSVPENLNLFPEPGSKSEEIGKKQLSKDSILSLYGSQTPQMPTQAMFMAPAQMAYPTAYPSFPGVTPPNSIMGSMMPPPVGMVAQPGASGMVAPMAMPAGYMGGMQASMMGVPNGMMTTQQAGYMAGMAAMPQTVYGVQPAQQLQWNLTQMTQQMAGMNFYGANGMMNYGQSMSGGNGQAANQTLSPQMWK
UniProt Q9H2D1: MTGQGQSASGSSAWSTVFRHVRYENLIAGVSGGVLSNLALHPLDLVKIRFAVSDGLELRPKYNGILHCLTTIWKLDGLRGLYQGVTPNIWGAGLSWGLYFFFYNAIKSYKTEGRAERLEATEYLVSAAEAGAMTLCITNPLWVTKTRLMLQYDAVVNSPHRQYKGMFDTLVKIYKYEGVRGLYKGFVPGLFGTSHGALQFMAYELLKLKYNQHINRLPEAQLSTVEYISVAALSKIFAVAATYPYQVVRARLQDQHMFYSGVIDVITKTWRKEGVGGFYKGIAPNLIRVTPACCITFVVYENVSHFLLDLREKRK
UniProt P50443: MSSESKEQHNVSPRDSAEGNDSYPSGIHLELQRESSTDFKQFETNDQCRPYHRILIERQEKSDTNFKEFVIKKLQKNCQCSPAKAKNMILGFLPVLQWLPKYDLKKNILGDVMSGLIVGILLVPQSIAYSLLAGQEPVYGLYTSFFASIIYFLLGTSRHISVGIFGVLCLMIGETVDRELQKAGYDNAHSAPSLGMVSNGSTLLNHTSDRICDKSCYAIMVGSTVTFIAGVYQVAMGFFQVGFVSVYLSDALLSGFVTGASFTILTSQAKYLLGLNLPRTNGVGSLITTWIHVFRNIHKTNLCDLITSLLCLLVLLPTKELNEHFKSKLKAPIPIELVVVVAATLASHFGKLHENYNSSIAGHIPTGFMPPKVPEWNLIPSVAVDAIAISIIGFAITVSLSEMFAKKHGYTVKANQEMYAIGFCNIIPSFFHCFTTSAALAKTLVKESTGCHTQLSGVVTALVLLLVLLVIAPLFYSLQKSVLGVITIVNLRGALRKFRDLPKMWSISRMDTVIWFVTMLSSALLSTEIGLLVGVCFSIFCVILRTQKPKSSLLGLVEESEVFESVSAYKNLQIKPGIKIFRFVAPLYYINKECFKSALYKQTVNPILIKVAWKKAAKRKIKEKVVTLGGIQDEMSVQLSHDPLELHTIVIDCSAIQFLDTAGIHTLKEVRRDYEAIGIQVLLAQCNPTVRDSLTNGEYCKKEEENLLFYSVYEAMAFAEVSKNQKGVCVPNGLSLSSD
UniProt Q92581: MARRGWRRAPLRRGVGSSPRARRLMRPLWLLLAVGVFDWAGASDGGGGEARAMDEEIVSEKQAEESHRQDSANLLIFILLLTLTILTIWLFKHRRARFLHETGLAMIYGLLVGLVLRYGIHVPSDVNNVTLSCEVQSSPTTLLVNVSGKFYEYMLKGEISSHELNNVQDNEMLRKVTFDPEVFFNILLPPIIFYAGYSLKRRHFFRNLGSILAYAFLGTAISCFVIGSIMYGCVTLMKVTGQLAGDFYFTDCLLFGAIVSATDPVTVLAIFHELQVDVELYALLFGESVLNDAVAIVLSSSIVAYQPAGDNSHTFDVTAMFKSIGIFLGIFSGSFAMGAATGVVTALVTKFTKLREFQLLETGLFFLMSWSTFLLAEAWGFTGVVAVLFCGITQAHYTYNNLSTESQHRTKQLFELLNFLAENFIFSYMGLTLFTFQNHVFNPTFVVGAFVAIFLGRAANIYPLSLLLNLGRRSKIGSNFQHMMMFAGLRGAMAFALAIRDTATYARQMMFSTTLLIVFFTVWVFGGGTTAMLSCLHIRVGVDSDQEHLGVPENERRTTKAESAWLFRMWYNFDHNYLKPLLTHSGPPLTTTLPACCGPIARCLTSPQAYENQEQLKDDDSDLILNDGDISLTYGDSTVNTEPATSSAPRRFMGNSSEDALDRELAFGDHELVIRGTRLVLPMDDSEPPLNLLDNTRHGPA
UniProt Q96QD8: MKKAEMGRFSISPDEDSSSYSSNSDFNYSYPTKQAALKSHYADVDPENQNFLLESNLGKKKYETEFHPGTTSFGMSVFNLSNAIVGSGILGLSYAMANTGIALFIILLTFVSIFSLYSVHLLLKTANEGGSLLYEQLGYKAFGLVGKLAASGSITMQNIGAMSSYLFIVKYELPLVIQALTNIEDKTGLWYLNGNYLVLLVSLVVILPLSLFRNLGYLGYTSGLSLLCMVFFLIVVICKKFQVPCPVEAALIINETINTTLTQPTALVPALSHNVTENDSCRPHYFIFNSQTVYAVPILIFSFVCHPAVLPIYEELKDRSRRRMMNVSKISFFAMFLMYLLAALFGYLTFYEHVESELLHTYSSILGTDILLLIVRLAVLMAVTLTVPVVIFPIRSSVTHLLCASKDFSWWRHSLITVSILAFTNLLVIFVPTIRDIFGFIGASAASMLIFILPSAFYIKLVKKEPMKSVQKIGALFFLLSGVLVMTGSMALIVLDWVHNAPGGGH
UniProt Q01650: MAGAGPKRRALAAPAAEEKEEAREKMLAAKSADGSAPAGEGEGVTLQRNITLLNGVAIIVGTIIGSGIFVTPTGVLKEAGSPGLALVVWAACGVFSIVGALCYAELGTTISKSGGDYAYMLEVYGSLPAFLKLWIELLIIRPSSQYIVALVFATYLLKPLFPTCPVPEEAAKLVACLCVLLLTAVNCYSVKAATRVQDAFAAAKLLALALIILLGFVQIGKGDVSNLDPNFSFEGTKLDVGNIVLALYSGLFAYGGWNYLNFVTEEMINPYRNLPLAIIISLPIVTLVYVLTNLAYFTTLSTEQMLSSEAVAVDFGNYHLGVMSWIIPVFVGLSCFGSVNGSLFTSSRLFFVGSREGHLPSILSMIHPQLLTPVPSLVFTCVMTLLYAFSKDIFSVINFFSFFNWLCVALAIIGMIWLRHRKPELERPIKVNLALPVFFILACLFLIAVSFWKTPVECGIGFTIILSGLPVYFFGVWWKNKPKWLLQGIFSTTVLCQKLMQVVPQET

Each target was assayed with NCC(=O)Nc1ccc(-n2nc(C(F)(F)F)cc2-c2ccc3c(ccc4ccccc43)c2)cc1 (assay: log2 fold change, soluble protein after heating vs DMSO (PISA); higher = thermal stabilisation; K562 lysate, 10 uM; active = over 0.2 and 3.5 SD of the protein, either way, in both replicates (recomputed)).
Summary of the method: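 Log-two fold change in thermal stability relative to solvent controls is reported from duplicates. For each sample, crude K562 extract from dounce-homogenised pellets in PBS pH 7.4 with 1 mM MgCl2, at 1 mg/mL protein, was treated with 10 μM compound for 30 min. Aliquots heated for 3 min across 48°C-58°C were pooled, brought to 0.5% NP-40 at 4°C and cleared at 21,000xg for 90 min. The supernatant was quantified by TMTpro 16plex LC-MS/MS with channel sums equalised.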

Target | log2 fold change
SLC25A22 (UniProt Q9H936) | inactive: -0.019
SLC25A10 isoform 2 (UniProt Q9UBX3) | inactive: -0.058
SLC30A10 (UniProt Q6XR72) | inactive: -0.062
SLC35A4 (UniProt L0R6Q1) | inactive: -0.077
SLC27A4 (UniProt Q6P1M0) | inactive: -0.127
SLC35A3 isoform 2 (UniProt Q9Y2D2) | inactive: -0.022
SLC9A3R1 (UniProt O14745) | inactive: 0.024
SLC4A7 isoform 7 (UniProt Q9Y6M7) | inactive: -0.025
SLC7A11 (UniProt Q9UPY5) | inactive: 0.061
SLC35B2 (UniProt Q8TB61) | inactive: 0.032
SMAD4 (UniProt Q13485) | inactive: 0.023
SLC43A3 isoform 2 (UniProt Q8NBI5) | inactive: -0.045
SLC25A15 (UniProt Q9Y619) | inactive: 0.007
SLC39A10 (UniProt Q9ULF5) | inactive: -0.059
SMAP (UniProt O00193) | inactive: -0.014
SLC35B1 isoform 2 (UniProt P78383) | inactive: -0.008
SMAD5 (UniProt Q99717) | inactive: -0.009
SLC35B4 (UniProt Q969S0) | inactive: -0.008
SLC25A21 (UniProt Q9BQT8) | inactive: -0.039

Target | log2 fold change
SMAP2 (UniProt Q8WU79) | inactive: 0
SLC6A6 (UniProt P31641) | inactive: -0.079
SLC25A32 (UniProt Q9H2D1) | inactive: 0.053
SLC26A2 (UniProt P50443) | inactive: -0.009
SLC2A3 (UniProt P11169) | inactive: 0.006
SLC25A37 (UniProt Q9NYZ2) | inactive: 0.091
SLC25A3 isoform 2 (UniProt Q00325) | inactive: 0.017
SLC7A2 isoform 3 (UniProt P52569) | inactive: -0.066
SLC25A12 (UniProt O75746) | inactive: 0.007
SLC27A2 (UniProt O14975) | inactive: -0.108
SLC9A6 isoform 2 (UniProt Q92581) | inactive: 0.073
SLC39A3 (UniProt Q9BRY0) | inactive: 0.004
SLC25A5 (UniProt P05141) | inactive: 0.006
SLC38A2 (UniProt Q96QD8) | inactive: -0.045
SLC35C1 (UniProt Q96A29) | inactive: -0.108
SLC25A51 (UniProt Q9H1U9) | inactive: -0.021
SLC25A17 (UniProt O43808) | inactive: 0.021
SLC4A2 (UniProt P04920) | inactive: -0.109
SLC7A5 (UniProt Q01650) | inactive: 0.034

Quoted from the listing.
log2 fold change, SLC7A5 (UniProt Q01650) reads inactive: 0.034
log2 fold change, SLC9A6 isoform 2 (UniProt Q92581) reads inactive: 0.073
